For experiment [1], the target named is T1, human 5T4, Internal (Lot 20-019-62) (human) (UniProt Q13641).
T1 sequence: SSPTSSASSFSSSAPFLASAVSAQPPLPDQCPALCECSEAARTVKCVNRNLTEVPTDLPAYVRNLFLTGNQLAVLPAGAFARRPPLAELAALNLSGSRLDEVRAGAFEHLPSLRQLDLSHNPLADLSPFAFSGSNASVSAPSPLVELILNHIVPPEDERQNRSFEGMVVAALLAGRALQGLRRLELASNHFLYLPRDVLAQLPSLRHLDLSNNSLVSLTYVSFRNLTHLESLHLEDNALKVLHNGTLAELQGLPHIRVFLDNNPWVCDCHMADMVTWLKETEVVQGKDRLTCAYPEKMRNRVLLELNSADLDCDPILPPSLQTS
The experiment can be described thus: Octet (BLI), monovalent format: antibody on AHC sensor, human 5T4 in solution; internal lot.

Experiment [2] has as its target T2, Recombinant Rat TPBG/5T4 with 6His-SUMO, N-terminus tags (rat) (UniProt Q5PQV5).
T2 sequence (looked up): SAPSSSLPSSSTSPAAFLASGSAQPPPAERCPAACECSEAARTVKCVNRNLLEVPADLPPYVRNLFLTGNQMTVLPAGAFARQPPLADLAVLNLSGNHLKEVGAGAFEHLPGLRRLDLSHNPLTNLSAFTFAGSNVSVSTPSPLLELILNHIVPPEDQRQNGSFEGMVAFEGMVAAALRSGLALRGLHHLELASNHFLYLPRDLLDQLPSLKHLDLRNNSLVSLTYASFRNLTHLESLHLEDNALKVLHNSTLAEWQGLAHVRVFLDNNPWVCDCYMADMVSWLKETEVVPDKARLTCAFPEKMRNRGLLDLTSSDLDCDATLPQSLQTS
The experiment can be described thus: ELISA (antigen coated) and Octet (antibody on Protein A biochip, antigen in solution).

The target of experiment [3] is T3, recombinant cyno 5T4-Fc (cynomolgus monkey) (UniProt Q4R8Y9).
T3 sequence: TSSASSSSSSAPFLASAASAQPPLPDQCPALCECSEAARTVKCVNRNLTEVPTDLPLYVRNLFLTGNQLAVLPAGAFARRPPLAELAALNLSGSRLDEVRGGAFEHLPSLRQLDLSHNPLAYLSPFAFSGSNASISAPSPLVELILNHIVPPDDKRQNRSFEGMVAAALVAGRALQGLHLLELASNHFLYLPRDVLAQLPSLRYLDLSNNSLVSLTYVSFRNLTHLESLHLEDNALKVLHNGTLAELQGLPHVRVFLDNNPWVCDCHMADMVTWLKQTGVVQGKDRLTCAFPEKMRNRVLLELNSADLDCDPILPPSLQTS
The description is as above.

Residue numbers refer to the chain shown, from its start. Results are given in words; binding and its absence hold for the method and conditions named. Some binding calls cover weakened binding; strength is not graded here. For some assays here: Sequences can lack the tags named with a protein.

This passage reports binding results from patent publication US20250326858A1.

B1: mAbA15 (antibody, human IgG1, kappa, V domains shown)
VH: EVQLVESGGGLVQPGGSLRLSCAASGFTFSSYYIHWVRQAPGKGLEWVAYITSTGSYTEYADSVKGRFTISADTSKNTAYLQMNSLRAEDTAVYYCARYDRSTRYSGLDYWGQGTLVTVSS
VL: DIQMTQSPSSLSASVGDRVTITCRASQSVSSAVAWYQQKPGKAPKLLIYSASSLYSGVPSRFSGSRSGTDFTLTISSLQPEDFATYYCQQAYATPVTFGQGTKVEIKR
Turning to B1, the binding entry in experiment [1], in experiment [2] and in experiment [3] was “binds” each time.

B2: mAbA4 (antibody, human IgG1, kappa, V domains shown)
VH: EVQLVESGGGLVQPGGSLRLSCAASGFTFSRYYIHWVRQAPGKGLEWVAFISPGGSYTYYADSVKGRFTISADTSKNTAYLQMNSLRAEDTAVYYCAREYYSMGVLDYWGQGTLVTVSS
VL: B1 VL with A93E, T94S, V96Y
B2: the binding result in experiment [2] and in experiment [3] was “binds” in each case.

B3: mAbA17 (antibody, human IgG1, kappa, V domains shown)
VH: EVQLVESGGGLVQPGGSLRLSCAASGFTFSRYWIHWVRQAPGKGLEWVAAIFPYSGSTLYADSVKGRFTISADTSKNTAYLQMNSLRAEDTAVYYCARSPSRSILPSGLDYWGQGTLVTVSS
VL: B1 VL with A91G, Y92D, A93G, T94S, V96Y
As for B3, the binding entry in experiment [1], in experiment [2] and in experiment [3] was “binds” each time.
